According to PMC4197704:
Results are given in words; binding and its absence hold for the method and conditions named. Binding seen in cells or lysates may run through a third protein. Some entries that bind do so weakly or less than the wild type.

Sequences of proteins named here, by UniProt entry; tags and fusion partners are left off.
UniProt P63168: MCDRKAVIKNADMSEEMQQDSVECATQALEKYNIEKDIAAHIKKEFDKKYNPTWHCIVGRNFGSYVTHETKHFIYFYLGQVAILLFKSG
UniProt Q96EX3: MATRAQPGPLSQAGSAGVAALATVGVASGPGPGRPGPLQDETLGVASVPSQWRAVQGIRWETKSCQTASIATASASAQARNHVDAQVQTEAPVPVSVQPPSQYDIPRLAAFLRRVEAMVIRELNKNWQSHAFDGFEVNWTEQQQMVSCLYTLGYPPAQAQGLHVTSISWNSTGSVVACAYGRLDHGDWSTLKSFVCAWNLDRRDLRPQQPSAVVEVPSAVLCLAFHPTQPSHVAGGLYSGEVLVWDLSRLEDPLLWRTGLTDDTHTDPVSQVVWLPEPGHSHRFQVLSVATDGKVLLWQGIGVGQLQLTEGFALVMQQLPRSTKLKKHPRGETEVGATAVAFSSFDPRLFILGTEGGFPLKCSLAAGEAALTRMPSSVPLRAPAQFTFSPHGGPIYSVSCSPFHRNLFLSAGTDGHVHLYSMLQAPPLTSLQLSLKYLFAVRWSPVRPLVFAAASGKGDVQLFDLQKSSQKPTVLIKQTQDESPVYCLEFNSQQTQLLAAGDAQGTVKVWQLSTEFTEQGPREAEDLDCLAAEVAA

Experiments:
myc-DYNLL1 (mouse) = myc-DYNLL1 (mouse) (UniProt P63168); assay: co-IP; HEK-293T cells co-transfected with WDR34-GFP and myc-DYNLL1 or myc-DYNLL2; lysed in RIPA buffer with protease inhibitors; 0.4 mg pre-cleared lysate per IP, 1 ug anti-GFP or anti-Myc antibody on Protein G Sepharose; blot for the other tag
WDR34-GFP (human) = WDR34-GFP (human) (UniProt Q96EX3); assay: as above

binding (myc-DYNLL1 (mouse))	binding (WDR34-GFP (human))	Substance
binds	–	WDR34-GFP (from UniProt Q96EX3 1-536)
–	binds	myc-DYNLL1 (from UniProt P63168 1-89)
